## Primary screen of a compound library

Amino acid sequences for entries named in this document (tags omitted).
UniProt E9BF75, entry or part of it: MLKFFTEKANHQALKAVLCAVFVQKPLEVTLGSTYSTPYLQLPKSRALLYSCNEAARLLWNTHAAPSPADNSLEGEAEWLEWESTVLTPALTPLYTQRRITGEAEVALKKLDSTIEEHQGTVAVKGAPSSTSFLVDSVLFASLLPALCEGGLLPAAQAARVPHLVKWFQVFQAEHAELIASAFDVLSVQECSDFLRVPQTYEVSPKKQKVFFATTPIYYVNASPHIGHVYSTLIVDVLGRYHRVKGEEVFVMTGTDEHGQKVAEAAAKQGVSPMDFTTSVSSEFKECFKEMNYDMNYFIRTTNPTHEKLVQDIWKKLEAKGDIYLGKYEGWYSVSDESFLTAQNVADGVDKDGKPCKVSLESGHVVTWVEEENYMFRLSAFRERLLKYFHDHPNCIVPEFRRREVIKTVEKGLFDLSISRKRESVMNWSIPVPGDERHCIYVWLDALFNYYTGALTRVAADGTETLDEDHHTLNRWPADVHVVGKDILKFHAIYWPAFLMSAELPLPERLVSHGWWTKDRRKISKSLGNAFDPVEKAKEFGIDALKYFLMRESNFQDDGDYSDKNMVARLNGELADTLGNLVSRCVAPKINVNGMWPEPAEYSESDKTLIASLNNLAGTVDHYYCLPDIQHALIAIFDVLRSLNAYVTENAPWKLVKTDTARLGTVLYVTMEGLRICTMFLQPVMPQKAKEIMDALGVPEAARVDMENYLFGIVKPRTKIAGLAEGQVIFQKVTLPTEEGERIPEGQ

Source: ChEMBL document CHEMBL3988442, “University of Dundee, Small-Polar-MMV Screening Library” (2021).

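Methionyl-tRNA synthetase (putative), Leishmania donovani (UniProt E9BF75). Primary screen of methionyl-tRNA synthetase; the read-out is not stated. The test concentration is not given. The values are filed as inhibition. About 68,000 compounds were tested under these conditions; 0.035% (about 24) showed 50% or more at least once.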

Results are percentages, as filed. The controls that fix the scale are not given in the record; negative values are as filed. This is an unselected part of the compounds tested.

Compound | inhibition
NC(=O)C1CN(C(=O)c2ccc(F)cc2)CCN1CCc1ccccc1 (centres unmarked) | 16.19
Cc1nccn1-c1ccccc1CNC(=O)c1cn(CCN)nn1 | 11.76
CC(C)c1ccc(O)c(C(=O)NCc2nncn2C)c1 | 13.48
CN1CCN(C(=O)NC2CC2)Cc2cccnc21 | 10.46
COc1ccc(NC(=O)N2CCCCC2c2ncc[nH]2)cc1 (centres unmarked) | 9.375
COCCCNc1nc(CNC(C)=O)cc(-c2ccco2)n1 | 13.83
CCC1CNCc2cc3c(C)ccc(C)c3nc2O1 (centres unmarked) | 19.18
CCOCC1CN(C(=O)c2cc(C)oc2C)Cc2c1cnn2C (centres unmarked) | 2.439
O=C(c1[nH]c2ccc(Cl)cc2c1Cl)N1CCC2(CC1)OCCO2 | 23.74
Cc1nc(-c2cc(F)c3c(c2)CC(CN)O3)c[nH]1 (centres unmarked) | 21.56
COCCN1CCCC1(C)c1nc(C)cc(N)n1 (centres unmarked) | 13.12
Cc1nn(C)c(C)c1NC(=O)CN1CCCC1c1noc(C(C)C)n1 (centres unmarked) | 10.37
O=C(CCc1ccccc1)N1CCC(c2n[nH]c(C3CC3)n2)CC1 | 18.77
CN(C)C(=O)C1OC2(CCN(C(=O)c3ccoc3)CC2)c2ccccc21 (centres unmarked) | 23.34
O=C(NCCCN1CCOCC1)c1cc(-c2ccco2)[nH]n1 | 17.5
CN(CCO)c1ncc(-c2ccc(NC(=O)[C@@H]3CCCCN3)cc2)cn1 | 12.38
CN(C)c1ccc(NC(=O)NCc2cccs2)cn1 | -0.2786
COc1c(C2CCCN2CC(=O)N(C)Cc2ccco2)c(C)nn1C (centres unmarked) | 6.504
O=C(c1cnc2c(cnn2C2CCCC2)c1)N1CCN(CCO)CC1 | 5.556
Cc1noc(-c2ccc(N3CCC(C(=O)N4CCCC4)CC3)nc2)n1 | 7.532
c1csc(-c2nc(CN3CCOC(Cn4cccn4)C3)cs2)c1 (centres unmarked) | 24.5
CC(C)n1ccnc1CN1CCCN(C(=O)c2nccnc2N)CC1 | 4.908
Cc1c(NC(=O)c2ccc(Br)cc2)c(C(=O)N(C)C)nn1C | 31.91
C[C@@H]1CN(c2cccnn2)CC[C@@]1(O)C1CCOCC1 | 21.59
CC(C)N(C)Cc1nnc2n1CCCN(c1ncccn1)C2 | 16.39
CC(C)(O)CN1CCN(C(=O)COCC2CC2)CC1 | 7.639
Cc1cc(C)n(CC(C)Nc2ncnc3c2CCNC3)n1 (centres unmarked) | 15.46
Cc1nc(CN2CCN(C(=O)c3cc(C4CC4)on3)CC2)cs1 | 11.81
Cn1ncc(C(=O)N2CCN(S(C)(=O)=O)CC2)c1Cl | 9.799
Fc1cccc(Oc2ccc(CNCC3CNc4ccnn4C3)cn2)c1 (centres unmarked) | 27.94
CO[C@H]1CN(C(C)C)C[C@@H]1NC(=O)c1cc(COc2ccccc2)[nH]n1 | 13.87
Cc1nc(C2CCCN2CCCNS(C)(=O)=O)no1 (centres unmarked) | 13.27
Cc1cccc(C(C(=O)N2CC(c3cccnc3)C2)N(C)C)c1 (centres unmarked) | 12.73
COCC(=O)N1CCCC(C(=O)c2cnn(-c3ccc(F)cc3)c2N)C1 (centres unmarked) | 4.037
Cc1cc(C)c2c(c1)C(NC(=O)CSCc1ccncc1)CCO2 (centres unmarked) | 15.19
CCCNC(=O)CN1CCCC1c1nc(Cc2ccc(F)cc2)no1 (centres unmarked) | 12.23
CN(C)S(=O)(=O)N1CCCC1c1cccc(-n2ccnc2)n1 (centres unmarked) | 10.12
Cc1nc(CNCC2CCCN2c2cccnn2)oc1C (centres unmarked) | 9.22
COC[C@@]12CCO[C@@H]1CCN(C(=O)C1CC(F)(F)C1)C2 | 5.602
CC(NCc1cnn(C)c1)c1ccc(OCc2nccn2C)cc1 (centres unmarked) | 10.08
O=C(Cn1nc2ccccc2n1)N1CCCC(O)(CN2CCCC2)C1 (centres unmarked) | 20.85
O=C1Cc2cc(NC(=O)N3CCCN(Cc4cccs4)CC3)ccc2N1 | 14.69
CC(C)(C#N)c1ccc(NS(=O)(=O)CC2CCCCO2)cc1 (centres unmarked) | 1.863
COCC(=O)N1Cc2nccn2CC(Cn2ncccc2=O)C1 (centres unmarked) | 15.62
Oc1nc(N2CCCC2)nc2nccc(-c3ccccn3)c12 | 13.6
Cc1c(C(=O)N2CCC2(C)C)nnn1-c1cccc2cnccc12 | 15.38
Cc1cnn(CC2CCCCN2Cc2nnc(-c3ccco3)o2)c1 (centres unmarked) | 13.07
Cc1n[nH]cc1CNC1CCN(c2cccc(C(F)(F)F)c2)CC1 | 15.66
O=C(NCc1nnc2n1CCCC2)N1CCc2ccccc2C1 | 15.28